{"source": "patent US20100068786A1", "about": "“METHODS AND COMPOSITIONS FOR REVERSING P-GLYCOPROTEIN MEDICATED DRUG RESISTANCE” (priority 2008, published 2010)", "origin": "cited, not measured here", "test_system": "implanted human glioblastomas", "settings": "treatment with either drug alone, mice; cited from earlier work", "note": "At least one structure is not confirmed: it was looked up by name or label, or the drawing left a doubt."}
{"compound": "C/C=C/C[C@@H](C)C(=O)[C@H]1C(=O)N[C@@H](C(C)C)C(=O)N(C)CC(=O)N(C)[C@@H](CC(C)C)C(=O)N[C@@H](C(C)C)C(=O)N(C)[C@@H](CC(C)C)C(=O)N[C@@H](C)C(=O)N[C@H](C)C(=O)N(C)[C@@H](CC(C)C)C(=O)N(C)[C@@H](CC(C)C)C(=O)N(C)[C@@H](C(C)C)C(=O)N1C", "note": "[valspodar]", "values": [{"measurement": "effect on tumor size", "result": "no effect"}]}
